Reference: article PMC10163288
Some of the results follow.

B1: il2ra_site2_2erj_normal_mot_c2bf78bdce995293a161f7082e24b401_0001_af2_000000082_0001_17_32_H_._HHH_b2_06259_0001_0000100003_0000001_0 (protein)
chain: SSSSSEELKRLYELANQALEALQKGDEELVEELLEELEKLAEEADSPNVEEIIRFLEEELRSSSS
B2: il2ra_site1_2b5i_sap_11_mot_3e74c73188b6ebc5400a9f1924dc867e_0001_1_000000111_0001_17_32_H_._HHH_b2_00953_af2_0001_0000500038_0000001_0_0001_af2pred_dldesign_0_ … (protein)
chain: SSSSDPKYEELERLYKEALRLYKAGKREEALEVLEKAIKLAKELKDEKAVKELEELKERLKSSSS
B3: il2ra_site1_3nfp_sap_15_mot_HHH_b1_02637_af2_000000013_0001_1_18_H_._HHH_b1_08141_af2_0001_0000100001_0000001_0_0001_af2pred_0001_af2pred_1 (protein)
chain: NARWKLREAEKRGTEEEFVKEILEEVARNLGDPEQAKIFLKRLLRLAGIPPEEVEELVERAEELR
B4: il2ra_site2_2erj_normal_mot_HHH_b1_03833_000000078_0001_1_20_H_._HHH_b1_00122_0001_0000600031_0000001_0 (protein)
chain: SSSSEEERIEELYELIEELLKRGDVEEVNKVLEEILRLVEEIGDPKVHRLAWEALRLLHERHSSS
B5: il2ra_site2_2erj_sap_18_mot_HHH_b2_05639_000000107_0001_40_54_H_._HHH_b2_01447_af2_0001_0000300008_0000001_0_0001 (protein)
chain: SSSSDVEEEVERLLEEAEEAYEEGDLHRVYELAVRATHLAARHNNQELLRLILEFLEELSSSSSS
B6: il2ra_site2_3nfp_sap_20_mot_HHH_b1_06589_000000230_0001_37_50_H_._HHH_b2_05271_0001_0000400027_0000001_0_0001 (protein)
chain: SSSSDLEEEFRKVAAKASHLAFERGDSEAFFRIAELLFRFERTGDPRVLELLEELLKELEGSSSS
B7: il2ra_site2_3nfp_normal_mot_HHH_b1_05627_af2_000000038_0001_43_56_H_._HHH_b2_01669_0001_0000600006_0000001_0 (protein)
chain: SSSSDKSERYLEVALRLVEEAEEEGDEEVLRSHIHVALELAHAIGDEETFEKLHELLERLSSSSS
B8: il2ra_site1_3nfp_normal_mot_HHH_b1_06045_af2_000000189_0001_3_17_H_._HHH_b1_00035_0001_0000400044_0000001_1_af2pred_0001_af2pred (protein)
chain: SSSSSDAEELVEEIEKELEELLRNGNPEEALRLVERARKELKKLDNPEASEELLRFARRLSSSSS
B9: il2ra_site2_2erj_normal_mot_HHH_b2_01204_af2_000000056_0001_19_34_H_._HHH_b2_04448_0001_0000200003_0000001_0 (protein)
chain: SSSSSSDEEEERVRELLEEAREIEDLREAYRVFVEALHIASKNNNQELVEEIYKVVKELSSSSSS
B10: il2ra_site1_1z92_sap_13_mot_HHH_b1_02362_af2_000000131_0001_1_17_H_._HHH_b1_01160_af2_0001_0000200031_0000001_0_0001_af2pred_0001_af2pred (protein)
chain: DEKEAFEEHVERIARLAGVPSVEVEYSNGKYEVTLEGDEQALRAAKKAVESIARAAHLDVEVTTE
B11: il2ra_site2_2erj_normal_mot_HHH_b1_03107_000000098_0001_39_52_H_._HHH_b2_05000_0001_0000800029_0000001_0 (protein)
chain: SSSSSDQEEIWREVAELLAEAQHIDDPEEVKRLLEEARELAEEANNEYLKRYIEFVERDHSSSSS
B12: il2ra_site2_3nfp_normal_mot_HHH_b1_01086_000000225_0001_20_36_H_._HHH_b1_05415_0001_0000600036_0000001_0 (protein)
chain: SSSSSDELEEEVERLLEEAKHIPDPFERFAALADASTLVVQNDNEELLRLVREVSARLLSSSSSS
B13: il2ra_site1_3nfp_normal_mot_HHH_b1_07204_af2_000000238_0001_41_55_H_._56b2e862c5d7020fcb9d25388f5aedda_0001_0001_0000100005_0000001_0 (protein)
chain: DIAERLLEDAKKQGDLKAVSSVARAVAHLRNDPELEERIRELAEKAKENPEVQEELIELAEELLK
B14: il2ra_site1_3nfp_sap_5_mot_119b7766384adbe86006a62bce89dba1_0001_af2_000000092_0001_18_32_H_._271fd64b0493777e1e4ec5ba97d0f55e_0001_1_0001_0000100001_0000001_0_ … (protein)
chain: TEEKLERAAEWHGSEELLKLIREALELAKEKNDPHLRYELLQLALEALFKNDPELAEEIRELAEK
B15: il2ra_site2_3nfp_normal_mot_HHH_b2_08245_000000272_0001_41_55_H_._HHH_b2_03957_0001_0000400054_0000001_1 (protein)
chain: SSSSDVEERVRELLKEAEELLERGNPEEAKKVLREASKLAYEARDPELFALIAELLYKVLGSSSS
B16: il2ra_site1_2b5i_normal_mot_HHH_b1_08745_af2_000000166_0001_39_57_H_._HHH_b2_04998_0001_0000600048_0000001_0_af2pred_dldesign_0_af2pred (protein)
chain: SSSSSSGEEVRELLLEAERLRKAGKEEEAKKVLEKALELAKKLKMNLAVKFIELALESLSSSSSS
B17: il2ra_site2_2erj_normal_mot_HHH_b1_01129_af2_000000281_0001_18_33_H_._HHH_b2_07905_0001_0000400048_0000001_0 (protein)
chain: SSSSSSDEEEERVEELLERAKHISDLEEVYKLLNEALHLAAKHNDHELLRLILEFVERHSSSSSS
B18: il2ra_site1_1z92_sap_19_mot_HHH_b1_04932_af2_000000260_0001_1_19_H_._HHH_b1_03210_af2_0001_0000500015_0000001_0_0001_af2pred_0001_af2pred_1 (protein)
chain: SSSSSAEVLREALEILDELWRRGDPEEAKEVLKEAEEILEEEGNESAVRQLRRMFETAERSSSSS

Target: il2ra, P01589
Assay: yeast display titration

Apparent Kd, inactive:
B1 no binding seen, B2 no binding seen, B3 no binding seen, B4 no binding seen, B5 no binding seen, B6 no binding seen, B7 no binding seen, B8 no binding seen, B9 no binding seen, B10 no binding seen, B11 no binding seen, B12 no binding seen, B13 no binding seen, B14 no binding seen, B15 no binding seen, B16 no binding seen, B17 no binding seen, B18 no binding seen
